The campaign covered roughly 52,000 sequences. About 210 (0.4%) were called active.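 How the source made its calls: active means gene whose silencing raises cell survival under the drug, median off-target-corrected z-score across its silencing RNAs 2 or more; inactive means the rest.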 The list shows a part of the results.

The nature of this experiment: Resistance to Poly (ADP-Ribose) Polymerase inhibitor: Gene Identification via Genome-wide siRNA Screen. The settings on record: mouse BRCA2 R2336H ES cells, olaparib, CellTiter-Glo viability; active compounds read high. In a few lines: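 Genome-wide siRNA screen (3 siRNAs/gene, 20 nM) in mouse ES cells carrying hypomorphic BRCA2 R2336H; olaparib 500 nM added 48 h post-transfection, CellTiter-Glo viability 72 h later. Normalized to plate-median negative control; MAD z-scores, gene median, seed-adjusted.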
On to “CGGUGUCAUCAGUUGCUUATT against 4930432B04Rik”, for which the z-score was inactive: -2.04.
In the case of CCUCAUUCUCAUUACGACATT against Acp6 it was inactive: 0.329; in that of GGCAGCAUUUGUUCUUUUATT against Zfpn1a1, inactive: 0.342.
Turning to GGAAAAAAGAGUCACUUCCTT against Rag1, the z-score was inactive: 2.85.
In the case of GGAAACGAUGCAAGAACCCTT against Zp3r it was inactive: -1.4.
Take GGCCUGGCAUGAACAUAAATT against Atf5: the z-score is inactive: -1.1.
In the case of GGAAGAAUCGCUGCUACCGTT against Mrpl20 it was inactive: 1.16; in that of “GGAUGUCUACUGGAAUGUUTT against D430024F16Rik”, inactive: -2.14; in that of GGAAUUUCGGGACAAAAUUTT against Olfr654, inactive: -0.213.
In the case of AGAGAGAAAUGGUAGCGUATT against Oog2, the z-score is inactive: 0.705.
Then GGUGGAAUGAAAUAUGAAGTT against Ptp4a1, with inactive: 0.0271; and GGGAAGAAAAGAAGUAUGUTT against Atp10a, with inactive: 0.357.
In the case of GUCCUGCACUUUUUGGCUCTT against Olfr1223 it was inactive: -0.59.
On to GGAAGCACAUCAAUAGGGCTT against Olfr828, for which the z-score was inactive: 0.899.
With GGAACUUUCUGAAGAAACATT against Oasl2, the z-score is inactive: -1.08.
Then GCUACUCUACUGGUUCUUATT against Pltp, with inactive: -0.867.
In the case of GCCUUUCGUGGUGUCAGCUTT against Chst2 it was inactive: 0.699; in that of GAUGCUCAUCAAUAUCGUATT against Olfr1109, inactive: -0.288.
On to GGAAAGGCUCGGCUUUUGATT against Ormdl2, for which the z-score is inactive: -2.81.
As for GGGUUUGCAUCACUUUGUUTT against Olfr1245, the z-score is inactive: -0.25.
In the case of GGAUGAUUUCCAGAGAGUATT against Rdh5 it was inactive: -1.33.
For GCAGGAAAGAGUUCAACAGTT against Ian1, the z-score was inactive: -0.518.
As for GGCAAAUUAGCUAGUAUCATT against Rai2, the z-score was inactive: -1.28.
As to GGUAAUCUUUCAGUUACCCTT against Six4, the z-score was inactive: 0.0146.
In the case of GGUGAUGUGGAAGCAUUUGTT against Adrm1 it was inactive: -2.06; in that of GGAACACUGGAACUAUUUUTT against Sipa1l1, inactive: -1.16.
Regarding “GGGAAAGAAGCAAAACUUUTT against 3830421F13Rik”, the z-score is inactive: 1.35.
Consider GGAAGAGGCUGAAGUAAAATT against Brd8, for which the z-score is inactive: -2.23.
With CCACAAAUACAAAUCUACCTT against Bloc1s3, the z-score was inactive: -0.433.
In the case of “GGAUUCUCUACCUUACCAUTT against 2810423E13Rik” it was inactive: -0.387; in that of GGGAGAAGUAAGUGUUAUCTT against Npy2r, inactive: 2.15.
Then UAAAUACUUACCAGCUGGATT against Olfr1306, with inactive: -0.725; and CCUUCAGAAAGUUGUUGAATT against Commd5, with inactive: -0.987.
In the case of “GGAGUUUGCCACAAUUGUUTT against 2810408E11Rik”, the z-score is inactive: -1.26.
In the case of GGCCUGGAGGAGCUAUAUUTT against Nrl it was inactive: -0.0154.
For GCAAAAUCUCAAAUUGCUCTT against Mdh1, the z-score is inactive: 0.0536.
As to GGAAAGAAGAACCAAGCUCTT against Med6, the z-score was inactive: -1.98.
Then GGAAACAAGAAGAACGAUGTT against Camk2a, with inactive: 0.214; and “GGUAUGAGAUUACCUUCACTT against 1700037H04Rik”, with inactive: 0.702.
For CCUUGGGACAAGCAUAUAUTT against Psg25, the z-score is inactive: -2.48.
In the case of CCAUCUGAUUAAUGGCUUCTT against Tm7sf2 it was inactive: -1.81; in that of “GGGACCACCUUGAACACUATT against 2310046K01Rik”, inactive: -1.17.
In the case of GGCCAAAGGAUUUCUUAUCTT against Ndufa6 it was inactive: 0.941.
As for GGAACAAGGAUGCUCAUACTT against Ankmy1, the z-score was inactive: -0.397.
In the case of GCUACUACCUGGCAGUUAGTT against Cyp4b1 it was inactive: 0.415; in that of GGAACACAGGUUAAGAAGGTT against Eif2b5, inactive: 1.28.
In the case of “GGUCCUUCACAGUUAUGUGTT against 2810405F18Rik” it was inactive: -1.06; in that of GGUCUUAGAAGAUUUUUCUTT against Adam21, active: 2.43.
Turning to CGAUGAAUCAGUGAGGCUGTT against Wdr18, the z-score was inactive: -1.94.
For the sequence GCUUGGAUUGGUAACCUGUTT against Olfr167, the z-score is inactive: -0.315.
GGCAGAAGUCAUCAACCAATT against Bcl2l12: the z-score is inactive: -0.548.
“GGCUGAGGCUCAUUACAAGTT against A930006D11”: the z-score is inactive: -1.46.
Turning to GGUGAUCAUGCUAACCUUUTT against Pcolce, the z-score was inactive: 0.206.
Consider “GGCACUGUGUCAAGGUAAGTT against A230058J24Rik”, for which the z-score was inactive: -1.57.
In the case of GCGAAACAUAAACUGGGCATT against Fgd2 it was inactive: -0.489.
GCUGAGGACAUAUAAACUCTT against Nipsnap1: the z-score was inactive: -0.264.
In the case of “GCAUUUCGAAGUGCCCUUGTT against D830046C22Rik”, the z-score is inactive: -2.53.
In the case of GGCAUCAAAGAGAUCAUAGTT against Atp8a2 it was inactive: -2.9.
In the case of GGUGUCGGAUAUAGAAAAGTT against Pnma1 it was inactive: -0.145.
GGACAAGAACCUGAAGCGGTT against Cdk5r1: the z-score was inactive: -0.584.
Then GCCUUCCUAAAGGAUUACUTT against Ndst1, with inactive: 0.533; and GCCGAAUCACUUAAGUCCATT against Fbln1, with inactive: 1.24.
Then GGUAUUCAAUACACAAUUCTT against Mlh1, with inactive: -0.391; and GGACCUAAGGACUUGUUGATT against Chdh, with inactive: 0.726; and GGCUUAAGGUGAGAUAUUCTT against Sp9, with inactive: -0.226.
Then GGCCAGACAUGUUGAAGAATT against Ssna1, with inactive: -1.49; and GUCAUGCAGCUCCUUUGGUTT against Olfr635, with inactive: -1.58.

The values are drawn from PubChem BioAssay AID1347423 (Functional Genomics Laboratory (NCATS/FGL), 2020).
